The list shows a part of the results.
Compound: COc1ccc(Cn2ccc3cc(C)c(C(=O)NO)cc32)cc1
Test: dose-dependent thermal stabilisation call (2D-TPP, DLPTP, 10% FDR) (binary (1 = stabilised)); higher = stabilised by the compound
Settings: system: HL-60 intact cells; concentration range 0.04-10 µM
Description: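 2D thermal proteome profiling in intact HL-60 cells treated with BRD-3811 (0, 0.04, 0.29, 2, 10 uM) for 90 min at 37 C, then heated 3 min at one of 12 temperatures (42-63.9 C). Soluble protein was quantified by TMT10 MS. The value is the DLPTP call of the paper: dose-dependent thermal stabilisation over all temperatures at 10% FDR (F-test of a dose-response against a flat model); one experiment, one call per tested protein.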

Protein sequences, listed by entry. Tags and fused reporters are not part of them. Lines headed by an entry give the natural chain unless they say otherwise; changes in a name come on top.
UniProt P36543, whole entry: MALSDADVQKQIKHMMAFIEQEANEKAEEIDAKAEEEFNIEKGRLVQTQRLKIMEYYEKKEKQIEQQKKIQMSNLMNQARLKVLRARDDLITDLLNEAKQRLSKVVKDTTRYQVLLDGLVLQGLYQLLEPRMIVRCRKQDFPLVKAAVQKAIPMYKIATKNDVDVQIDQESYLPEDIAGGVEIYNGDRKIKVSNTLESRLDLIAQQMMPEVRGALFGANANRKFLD
UniProt P46379: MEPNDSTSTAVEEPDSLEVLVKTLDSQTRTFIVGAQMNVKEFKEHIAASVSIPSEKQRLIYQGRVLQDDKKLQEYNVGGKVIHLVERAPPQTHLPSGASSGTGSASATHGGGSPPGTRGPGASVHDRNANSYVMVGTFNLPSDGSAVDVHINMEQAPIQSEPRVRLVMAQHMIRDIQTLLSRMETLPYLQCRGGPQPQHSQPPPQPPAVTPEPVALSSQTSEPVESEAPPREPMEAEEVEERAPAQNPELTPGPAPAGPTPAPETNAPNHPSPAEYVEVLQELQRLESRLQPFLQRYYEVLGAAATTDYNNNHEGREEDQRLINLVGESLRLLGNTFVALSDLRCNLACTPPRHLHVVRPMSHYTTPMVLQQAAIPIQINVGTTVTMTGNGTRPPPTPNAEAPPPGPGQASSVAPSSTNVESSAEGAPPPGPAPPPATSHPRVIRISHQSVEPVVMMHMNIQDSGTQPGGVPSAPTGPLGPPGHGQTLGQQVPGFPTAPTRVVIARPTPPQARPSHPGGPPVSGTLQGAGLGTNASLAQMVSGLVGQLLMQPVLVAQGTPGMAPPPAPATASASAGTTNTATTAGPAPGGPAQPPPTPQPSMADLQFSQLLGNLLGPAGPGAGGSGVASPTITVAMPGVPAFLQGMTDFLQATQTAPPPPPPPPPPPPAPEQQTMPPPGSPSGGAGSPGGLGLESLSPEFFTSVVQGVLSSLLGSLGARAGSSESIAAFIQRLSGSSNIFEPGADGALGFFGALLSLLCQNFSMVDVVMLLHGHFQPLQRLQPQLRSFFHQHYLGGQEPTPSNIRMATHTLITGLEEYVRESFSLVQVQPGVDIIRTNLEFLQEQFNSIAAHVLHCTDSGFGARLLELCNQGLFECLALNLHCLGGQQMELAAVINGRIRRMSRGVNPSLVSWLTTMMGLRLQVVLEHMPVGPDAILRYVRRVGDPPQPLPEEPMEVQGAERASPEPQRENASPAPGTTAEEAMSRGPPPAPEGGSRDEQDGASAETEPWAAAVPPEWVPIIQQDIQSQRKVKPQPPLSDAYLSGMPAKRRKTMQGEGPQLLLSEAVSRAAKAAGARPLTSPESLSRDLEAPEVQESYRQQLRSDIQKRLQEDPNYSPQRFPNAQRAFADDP
UniProt Q4ZIN3: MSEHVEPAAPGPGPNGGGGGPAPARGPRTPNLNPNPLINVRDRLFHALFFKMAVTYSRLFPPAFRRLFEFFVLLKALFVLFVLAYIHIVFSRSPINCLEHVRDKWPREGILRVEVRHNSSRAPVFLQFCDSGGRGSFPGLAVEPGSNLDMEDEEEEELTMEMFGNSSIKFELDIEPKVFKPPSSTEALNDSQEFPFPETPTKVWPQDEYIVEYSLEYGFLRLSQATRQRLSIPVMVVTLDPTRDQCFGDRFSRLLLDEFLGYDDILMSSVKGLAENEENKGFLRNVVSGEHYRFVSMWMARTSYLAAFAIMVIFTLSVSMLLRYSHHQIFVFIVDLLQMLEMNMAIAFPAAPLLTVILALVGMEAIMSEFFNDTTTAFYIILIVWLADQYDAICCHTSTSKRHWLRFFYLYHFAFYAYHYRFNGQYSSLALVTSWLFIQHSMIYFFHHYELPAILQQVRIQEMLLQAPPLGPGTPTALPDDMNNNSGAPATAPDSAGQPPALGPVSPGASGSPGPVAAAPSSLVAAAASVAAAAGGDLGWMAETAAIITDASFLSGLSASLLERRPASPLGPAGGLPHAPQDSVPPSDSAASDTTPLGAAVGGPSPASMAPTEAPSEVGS
UniProt Q9NQ88: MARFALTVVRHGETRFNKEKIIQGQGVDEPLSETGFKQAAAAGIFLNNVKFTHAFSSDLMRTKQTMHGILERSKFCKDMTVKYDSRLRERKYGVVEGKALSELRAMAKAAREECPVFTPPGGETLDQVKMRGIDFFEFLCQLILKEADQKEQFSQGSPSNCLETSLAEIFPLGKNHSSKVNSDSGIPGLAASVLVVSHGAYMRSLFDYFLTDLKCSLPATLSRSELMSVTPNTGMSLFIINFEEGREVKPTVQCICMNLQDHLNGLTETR
UniProt Q9NPA0: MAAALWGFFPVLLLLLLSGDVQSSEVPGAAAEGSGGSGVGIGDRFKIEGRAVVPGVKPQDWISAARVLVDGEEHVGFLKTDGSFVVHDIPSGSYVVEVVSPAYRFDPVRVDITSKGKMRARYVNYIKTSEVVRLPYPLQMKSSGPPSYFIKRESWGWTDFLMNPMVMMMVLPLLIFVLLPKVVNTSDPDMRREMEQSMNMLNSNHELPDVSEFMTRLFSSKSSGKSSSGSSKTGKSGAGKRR
UniProt Q6ZNW5: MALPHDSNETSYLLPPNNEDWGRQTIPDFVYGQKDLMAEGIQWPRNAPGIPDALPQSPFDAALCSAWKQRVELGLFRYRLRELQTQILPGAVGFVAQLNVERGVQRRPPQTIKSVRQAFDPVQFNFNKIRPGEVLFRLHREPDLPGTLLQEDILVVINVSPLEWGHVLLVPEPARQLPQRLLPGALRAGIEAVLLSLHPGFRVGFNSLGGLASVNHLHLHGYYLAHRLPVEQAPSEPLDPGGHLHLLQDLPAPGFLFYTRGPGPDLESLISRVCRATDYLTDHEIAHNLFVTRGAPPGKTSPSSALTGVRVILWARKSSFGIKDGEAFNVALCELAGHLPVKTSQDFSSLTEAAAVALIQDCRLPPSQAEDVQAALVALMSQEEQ
UniProt Q96JN0: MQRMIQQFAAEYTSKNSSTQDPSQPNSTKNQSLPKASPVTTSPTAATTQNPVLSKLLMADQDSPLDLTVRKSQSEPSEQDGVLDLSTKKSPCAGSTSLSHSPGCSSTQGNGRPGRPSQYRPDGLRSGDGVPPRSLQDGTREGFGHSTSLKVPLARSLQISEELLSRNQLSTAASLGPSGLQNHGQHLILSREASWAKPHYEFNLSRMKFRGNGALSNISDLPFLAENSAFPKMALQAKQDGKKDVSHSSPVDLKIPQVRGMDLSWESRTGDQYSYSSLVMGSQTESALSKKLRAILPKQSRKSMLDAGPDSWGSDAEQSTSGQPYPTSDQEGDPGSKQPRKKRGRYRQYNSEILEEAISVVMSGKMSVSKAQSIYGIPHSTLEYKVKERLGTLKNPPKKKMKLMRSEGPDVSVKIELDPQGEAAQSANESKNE
UniProt Q7Z569: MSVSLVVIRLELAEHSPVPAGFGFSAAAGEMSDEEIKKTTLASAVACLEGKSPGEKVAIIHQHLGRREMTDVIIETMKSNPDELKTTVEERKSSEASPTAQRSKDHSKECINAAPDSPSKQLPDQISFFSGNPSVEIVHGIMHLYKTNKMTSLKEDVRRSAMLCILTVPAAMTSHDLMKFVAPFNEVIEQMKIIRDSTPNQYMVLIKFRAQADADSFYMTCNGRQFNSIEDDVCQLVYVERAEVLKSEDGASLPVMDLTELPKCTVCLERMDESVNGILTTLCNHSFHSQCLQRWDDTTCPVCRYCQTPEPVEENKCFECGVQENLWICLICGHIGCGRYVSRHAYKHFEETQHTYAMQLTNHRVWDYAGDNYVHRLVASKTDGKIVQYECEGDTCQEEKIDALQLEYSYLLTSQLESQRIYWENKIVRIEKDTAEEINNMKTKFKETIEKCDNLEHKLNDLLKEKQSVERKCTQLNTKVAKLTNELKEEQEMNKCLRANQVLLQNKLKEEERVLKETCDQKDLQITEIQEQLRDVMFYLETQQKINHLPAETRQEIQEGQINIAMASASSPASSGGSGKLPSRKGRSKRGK
UniProt Q7Z5L2: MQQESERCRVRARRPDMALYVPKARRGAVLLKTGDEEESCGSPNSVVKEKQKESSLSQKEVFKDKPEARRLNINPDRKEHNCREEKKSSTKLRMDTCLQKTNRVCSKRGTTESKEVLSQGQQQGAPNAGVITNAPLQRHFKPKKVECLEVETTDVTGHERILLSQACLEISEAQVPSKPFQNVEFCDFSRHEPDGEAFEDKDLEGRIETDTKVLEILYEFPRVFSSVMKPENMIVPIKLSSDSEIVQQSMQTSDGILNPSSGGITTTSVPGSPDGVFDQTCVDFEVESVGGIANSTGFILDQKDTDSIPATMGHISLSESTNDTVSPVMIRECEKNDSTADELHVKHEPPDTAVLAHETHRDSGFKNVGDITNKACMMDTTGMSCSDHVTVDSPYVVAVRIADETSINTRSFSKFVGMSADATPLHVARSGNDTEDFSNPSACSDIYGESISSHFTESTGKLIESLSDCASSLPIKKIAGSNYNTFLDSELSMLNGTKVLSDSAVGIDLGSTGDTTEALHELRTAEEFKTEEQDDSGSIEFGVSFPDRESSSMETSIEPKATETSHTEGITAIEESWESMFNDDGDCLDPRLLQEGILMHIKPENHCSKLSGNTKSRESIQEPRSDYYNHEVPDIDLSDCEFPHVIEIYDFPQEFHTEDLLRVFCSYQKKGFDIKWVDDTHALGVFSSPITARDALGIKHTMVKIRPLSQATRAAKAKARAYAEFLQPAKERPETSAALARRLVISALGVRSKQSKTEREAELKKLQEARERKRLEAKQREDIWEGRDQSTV
UniProt Q96DM3: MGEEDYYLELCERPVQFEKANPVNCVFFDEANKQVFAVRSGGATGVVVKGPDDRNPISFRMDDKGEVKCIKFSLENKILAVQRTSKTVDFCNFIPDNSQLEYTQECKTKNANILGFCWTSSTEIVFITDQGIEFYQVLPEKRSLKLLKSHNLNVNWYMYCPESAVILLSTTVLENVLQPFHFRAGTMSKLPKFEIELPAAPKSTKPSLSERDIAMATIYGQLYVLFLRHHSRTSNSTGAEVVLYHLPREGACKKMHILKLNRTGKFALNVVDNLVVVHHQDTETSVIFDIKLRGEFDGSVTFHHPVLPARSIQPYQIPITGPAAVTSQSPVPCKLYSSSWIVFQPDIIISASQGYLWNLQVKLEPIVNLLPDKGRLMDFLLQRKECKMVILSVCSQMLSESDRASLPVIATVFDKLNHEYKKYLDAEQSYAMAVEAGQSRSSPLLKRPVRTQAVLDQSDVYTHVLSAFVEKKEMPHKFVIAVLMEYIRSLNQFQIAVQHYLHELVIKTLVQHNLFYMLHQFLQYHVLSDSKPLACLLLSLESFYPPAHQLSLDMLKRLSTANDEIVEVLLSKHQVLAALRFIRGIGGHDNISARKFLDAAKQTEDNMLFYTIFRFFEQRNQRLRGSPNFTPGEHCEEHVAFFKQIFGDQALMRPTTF
UniProt Q9H7F0: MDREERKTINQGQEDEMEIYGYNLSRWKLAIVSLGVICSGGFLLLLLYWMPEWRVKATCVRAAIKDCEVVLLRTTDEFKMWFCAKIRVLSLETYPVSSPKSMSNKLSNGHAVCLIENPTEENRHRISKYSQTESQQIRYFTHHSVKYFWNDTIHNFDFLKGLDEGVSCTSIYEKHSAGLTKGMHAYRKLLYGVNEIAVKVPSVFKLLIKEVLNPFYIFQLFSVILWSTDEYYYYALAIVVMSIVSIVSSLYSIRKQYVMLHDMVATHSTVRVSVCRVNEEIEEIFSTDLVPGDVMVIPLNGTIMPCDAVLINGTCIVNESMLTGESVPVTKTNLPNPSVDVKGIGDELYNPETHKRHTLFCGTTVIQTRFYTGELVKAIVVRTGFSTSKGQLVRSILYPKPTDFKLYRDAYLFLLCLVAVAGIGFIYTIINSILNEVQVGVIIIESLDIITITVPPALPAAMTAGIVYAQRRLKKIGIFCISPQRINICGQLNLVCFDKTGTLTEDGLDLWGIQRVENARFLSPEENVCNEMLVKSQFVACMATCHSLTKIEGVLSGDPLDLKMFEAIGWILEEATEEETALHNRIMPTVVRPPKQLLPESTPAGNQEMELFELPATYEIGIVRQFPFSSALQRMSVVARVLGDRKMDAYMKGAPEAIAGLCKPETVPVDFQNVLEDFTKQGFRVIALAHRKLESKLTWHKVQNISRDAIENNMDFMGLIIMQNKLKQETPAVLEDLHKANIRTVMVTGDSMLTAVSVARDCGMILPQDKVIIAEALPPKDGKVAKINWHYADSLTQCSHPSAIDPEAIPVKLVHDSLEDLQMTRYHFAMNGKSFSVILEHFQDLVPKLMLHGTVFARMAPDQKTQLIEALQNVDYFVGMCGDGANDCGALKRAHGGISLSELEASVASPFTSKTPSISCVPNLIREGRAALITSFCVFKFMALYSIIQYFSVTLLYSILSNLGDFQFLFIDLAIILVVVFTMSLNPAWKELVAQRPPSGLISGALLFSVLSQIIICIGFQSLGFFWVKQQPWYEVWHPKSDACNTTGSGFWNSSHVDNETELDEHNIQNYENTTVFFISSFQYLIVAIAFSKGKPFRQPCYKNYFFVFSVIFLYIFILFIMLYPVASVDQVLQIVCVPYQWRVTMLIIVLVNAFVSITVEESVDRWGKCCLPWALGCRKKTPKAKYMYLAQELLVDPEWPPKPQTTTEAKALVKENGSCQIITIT

| Target | dose-dependent thermal stabilisation call |
| --- | --- |
| UniProt B3GNT1 | inactive: 0 |
| ATP6V1E1 (UniProt P36543) | inactive: 0 |
| BAT3 (UniProt P46379) | inactive: 0 |
| BAT2 (UniProt P48634) | inactive: 0 |
| BYSL (UniProt Q13895) | inactive: 0 |
| C19ORF42 (UniProt Q9BQ49) | inactive: 0 |
| C10ORF18 (UniProt Q5VWN6) | inactive: 0 |
| ATP11B (UniProt Q9Y2G3) | inactive: 0 |
| C19ORF6 (UniProt Q4ZIN3) | inactive: 0 |
| C12ORF5 (UniProt Q9NQ88) | inactive: 0 |
| BDH1 (UniProt Q02338) | inactive: 0 |
| BRI3BP (UniProt Q8WY22) | inactive: 0 |
| BAP1 (UniProt Q92560) | inactive: 0 |
| ATP6AP1 (UniProt Q15904) | inactive: 0 |
| BASP1 (UniProt P80723) | inactive: 0 |
| C15ORF24 (UniProt Q9NPA0) | inactive: 0 |
| C10ORF119 (UniProt Q9BTE3) | inactive: 0 |
| BAT1 | inactive: 0 |

| Target | dose-dependent thermal stabilisation call |
| --- | --- |
| C15ORF58 (UniProt Q6ZNW5) | inactive: 0 |
| BCCIP (UniProt Q9P287) | inactive: 0 |
| C10ORF12 (UniProt Q96JN0) | inactive: 0 |
| BCL9L (UniProt Q86UU0) | inactive: 0 |
| BACH1 (UniProt O14867) | inactive: 0 |
| Ataxin-10 | inactive: 0 |
| BMS1 (UniProt Q14692) | inactive: 0 |
| BRAP (UniProt Q7Z569) | inactive: 0 |
| C15ORF57 (UniProt Q9BV29) | inactive: 0 |
| C10ORF28 (UniProt Q7Z5L2) | inactive: 0 |
| C18ORF8 (UniProt Q96DM3) | inactive: 0 |
| ATP13A3 (UniProt Q9H7F0) | inactive: 0 |
| BCLAF1 (UniProt Q9NYF8) | inactive: 0 |
| BAX (UniProt Q07812) | inactive: 0 |
| C12ORF45 (UniProt Q8N5I9) | inactive: 0 |
| C10ORF88 (UniProt Q9H8K7) | inactive: 0 |
| BZW2 (UniProt Q9Y6E2) | inactive: 0 |
| BRCA2 (UniProt P51587) | inactive: 0 |

Look-ups from the results shown:
BAT1 | dose-dependent thermal stabilisation call: inactive: 0
BRCA2 (UniProt P51587) | dose-dependent thermal stabilisation call: inactive: 0
